Assay results as given in patent publication EP3381905A1, “NOVEL ANTIVIRAL COMPOUNDS” (priority 2017, dated 2018).

Amino acid sequences for entries named in this document (tags omitted). Residues count along the entry.
UniProt P46934, 840-873 limits assumed: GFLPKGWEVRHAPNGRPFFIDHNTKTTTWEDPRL

What was measured:
[1] = system: MARV VP40 containing the wild type (wt) VP40 of Marburg virus (VP40WT); type: cell-based
[2] = molecular target: WW3-domain of NEDD4 (Homo sapiens, UniProt P46934)
[3] = system: GFP expressing HAd-C5 vector; test: fluorescent plaque forming assay (adenoviral propagation / virus spread); type: cell-based, adenovirus; conditions: 5 µM, compared to the DMSO negative control (Example 8, Figure 6)
[4] = system: MARV

With `Clc1ccc(CSC(Cn2ccnc2)c2ccc(Cl)cc2Cl)cc1` (stereo not shown) [Sulconazole] the “VP40 VLP release” value [1] was “inhibit”, the “interaction with the NEDD4 peptide (chemical shift changes)” value [2] was “interacts with the NEDD4 peptide” and the “anti-adenoviral activity (plaque size)” value [3] was “effective anti-adenoviral activity”. For the same molecule, the “inhibition of MARV replication depending on time of addition” value [4] was “occurred irrespective of the time the drug was added”.
